# Test results published in PubChem BioAssay AID662 (National Center for Advancing Translational Sciences (NCATS), 2007).
# This is one part of the list. The main result of the screen is listed elsewhere. These columns were measured beside it and carry no call. Most of these compounds were active or inconclusive in the main read-out, so they are no random draw. Potencies come from curve fits of mixed quality, noted in brackets.
# Test: Cell signaling CRE-BLA (Fsk stim)
# Conditions: CHO CRE-bla reporter (cAMP response element driving beta-lactamase), forskolin EC10, beta-lactamase ratio; measured here: 460 nm blue channel
# Procedure, shortened: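 Using CellSensor CRE-bla CHO cells in Opti-MEM with 0.5% dialyzed FBS, compounds were titrated with EC10 NKH 477 for 3 h at 37 °C. CCF4 ratio (460/530 nm) gave %Activity; AC50 derived.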
row,Structure (SMILES),AC50
1,COc1ccc2c(c1)CCc1c(C(=O)Nc3ccn(Cc4ccc(C)cc4)n3)noc1-2,"10 µM [falling, single point]"
2,CCOC(=O)c1sc(Nc2nc3c(OC)cccc3s2)nc1C,"10 µM [rising, partial curve]"
3,COc1ccccc1-c1c(C)nn2c(C)c(C(C)=O)cnc12,"10 µM [rising, partial curve]"
4,Cc1ccc(NC(=O)NCC(c2cccnc2)N2CCOCC2)cc1 (stereo not drawn),"3.98 µM [falling, partial curve]"
5,CCn1c2ccccc2c2nn(C)c(=N)nc21,"10 µM [falling, partial curve]"
6,CCCC(=O)c1ccc(N2CCN(C(=O)c3ccccc3Br)CC2)c(F)c1,"12.6 µM [falling, single point]"
7,Cc1ccc2cc(CN(CC3CCCO3)S(=O)(=O)c3c(C)ccc4nsnc34)c(=O)[nH]c2c1 (stereo not drawn),"25.1 µM [falling, single point]"
8,COc1ccc(CCNC2CC(=O)N(CCc3ccccc3)C2=O)cc1OC (stereo not drawn),"0.316 µM [rising, partial curve, poor fit]"
9,C=C[C@@]1(C)CC(=O)[C@@]2(O)[C@@]3(C)[C@H](O)CCC(C)(C)[C@@H]3[C@H](O)[C@H](OC(C)=O)[C@]2(C)O1,"0.251 µM [rising, full curve]"
10,CCNc1ncc2nc(C)c(=O)n(CCC#N)c2n1,"10 µM [rising, partial curve]"
11,CCCN(CCC)S(=O)(=O)c1ccc(C(=O)Nc2nnc(-c3cc(OC)cc(OC)c3)o2)cc1,"1.58 µM [falling, partial curve]"
12,COC(=O)c1c(-c2cccc(C)c2)csc1N,"3.98 µM [rising, single point]"
13,COc1ccc(-c2cn3cc(Cl)ccc3n2)cc1OC,"12.6 µM [rising, partial curve]"
14,Cc1nc(NCc2ccccc2)c2nc(-c3ccccc3)n(CCCN3CCOCC3)c2n1,"10 µM [rising, partial curve]"
15,CCCn1c(=O)c2ccccc2n2c(SCC(=O)c3cc(C)n(CCOC)c3C)nnc12,"0.126 µM [falling, full curve]"
16,CCOC(=O)c1sc(=S)n(-c2cc(F)ccc2F)c1N,"3.16 µM [rising, full curve]"
17,N=c1c(S(=O)(=O)c2ccccc2)cc2c(=O)n3ccccc3nc2n1CC1CCCO1 (stereo not drawn),"15.8 µM [rising, partial curve]"
18,C=CCn1c(Cc2ccc(OC)cc2)nnc1SCc1nc2ccccc2c(=O)[nH]1,"25.1 µM [rising, single point]"

# Single entries from the entries so far.
# For AC50, Cc1ccc(NC(=O)NCC(c2cccnc2)N2CCOCC2)cc1 (stereo not drawn) is listed with 3.98 µM [falling, partial curve]
# For AC50, CCCC(=O)c1ccc(N2CCN(C(=O)c3ccccc3Br)CC2)c(F)c1 is listed with 12.6 µM [falling, single point]
